Test results: US20250051407

Columns and labels:
[1] = test system: T1, DBP044 (synthetic construct); experiment: flow cytometry; conditions: bound most of the 13 targets; protein on the cell surface; protein details: yeast display (pETcon3, c-Myc); label: biotin
T1 sequence: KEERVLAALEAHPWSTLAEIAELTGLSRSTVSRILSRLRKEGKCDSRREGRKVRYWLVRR

[2] = test system: T2, DBP043 (synthetic construct); experiment: flow cytometry; conditions: 1 uM dsDNA yeast display; protein on the cell surface; protein details: yeast display (pETcon3, c-Myc); label: biotin
T2 sequence: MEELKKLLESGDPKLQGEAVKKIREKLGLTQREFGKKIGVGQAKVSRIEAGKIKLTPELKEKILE

[3] = test system: T3, DBP047 (synthetic construct); experiment: flow cytometry; conditions: prefers less than 3 of 13 targets; protein on the cell surface; protein details: yeast display (pETcon3, c-Myc); label: biotin
T3 sequence: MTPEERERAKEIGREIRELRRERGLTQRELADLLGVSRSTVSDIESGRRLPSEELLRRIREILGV

[4] = test system: T4, DBP048 (synthetic construct); experiment: flow cytometry; conditions: strong binding to alternate target; protein on the cell surface; protein details: yeast display (pETcon3, c-Myc); label: biotin
T4 sequence: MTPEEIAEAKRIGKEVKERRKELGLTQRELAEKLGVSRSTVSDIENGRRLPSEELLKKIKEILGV

[5] = test system: T5, DBP048 purified (synthetic construct); experiment: BLI; conditions: range for all purified designs; PBS, 1% BSA, 0.05% Tween 20; purified recombinant protein; protein details: His tag; label: biotin
T5 sequence: T4 sequence

[6] = test system: T6, DBP090 (synthetic construct); experiment: flow cytometry; conditions: initial design target; protein on the cell surface; protein details: yeast display (pETcon3, c-Myc); label: biotin
T6 sequence: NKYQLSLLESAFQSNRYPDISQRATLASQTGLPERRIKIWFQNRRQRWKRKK

[7] = test system: T7, DBP028 (synthetic construct); experiment: flow cytometry; conditions: 1 uM dsDNA without avidity; protein on the cell surface; protein details: yeast display (pETcon3, c-Myc); label: biotin
T7 sequence: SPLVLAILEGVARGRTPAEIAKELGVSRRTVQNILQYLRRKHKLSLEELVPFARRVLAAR

[8] = test system: T8, DBP003 (synthetic construct); experiment: flow cytometry; conditions: 1 uM dsDNA yeast display; protein on the cell surface; protein details: yeast display (pETcon3, c-Myc); label: biotin
T8 sequence: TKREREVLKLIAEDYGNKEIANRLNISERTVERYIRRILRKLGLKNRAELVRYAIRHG

[9] = test system: T9, DBP088 (synthetic construct); experiment: flow cytometry; conditions: 1 uM dsDNA with avidity; protein on the cell surface; protein details: yeast display (pETcon3, c-Myc); label: biotin
T9 sequence: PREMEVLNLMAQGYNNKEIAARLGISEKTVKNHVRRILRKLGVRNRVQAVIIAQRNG

[10] = test system: T10, DBP083 (synthetic construct); experiment: flow cytometry; conditions: prefers less than 3 of 13 targets; protein on the cell surface; protein details: yeast display (pETcon3, c-Myc); label: biotin
T10 sequence: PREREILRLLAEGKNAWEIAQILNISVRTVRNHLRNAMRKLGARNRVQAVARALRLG

[11] = test system: T11, DBP040 (synthetic construct); experiment: flow cytometry; conditions: 1 uM dsDNA without avidity; protein on the cell surface; protein details: yeast display (pETcon3, c-Myc); label: biotin
T11 sequence: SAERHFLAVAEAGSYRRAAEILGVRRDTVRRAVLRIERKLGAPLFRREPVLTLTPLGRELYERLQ

[12] = test system: T12, DBP086 (synthetic construct); experiment: flow cytometry; conditions: 1 uM dsDNA with avidity; protein on the cell surface; protein details: yeast display (pETcon3, c-Myc); label: biotin
T12 sequence: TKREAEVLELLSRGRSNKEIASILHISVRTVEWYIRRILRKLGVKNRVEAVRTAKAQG

[13] = test system: T13, DBP082 (synthetic construct); experiment: flow cytometry; conditions: 1 uM dsDNA with avidity; protein on the cell surface; protein details: yeast display (pETcon3, c-Myc); label: biotin
T13 sequence: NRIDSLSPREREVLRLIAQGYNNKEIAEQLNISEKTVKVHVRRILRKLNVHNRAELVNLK

[14] = test system: T14, DBP005 (synthetic construct); experiment: flow cytometry; conditions: 1 uM dsDNA yeast display; protein on the cell surface; protein details: yeast display (pETcon3, c-Myc); label: biotin
T14 sequence: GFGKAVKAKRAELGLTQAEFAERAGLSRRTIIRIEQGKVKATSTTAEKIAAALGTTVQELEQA

[15] = test system: T15, DBP001 (synthetic construct); experiment: flow cytometry; conditions: 1 uM dsDNA yeast display; prefers 2-3 of 13 targets; protein on the cell surface; protein details: yeast display (pETcon3, c-Myc); label: biotin
T15 sequence: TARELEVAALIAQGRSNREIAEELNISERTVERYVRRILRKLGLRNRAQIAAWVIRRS

[16] = test system: T16, DBP081 (synthetic construct); experiment: flow cytometry; conditions: 1 uM dsDNA with avidity; protein on the cell surface; protein details: yeast display (pETcon3, c-Myc); label: biotin
T16 sequence: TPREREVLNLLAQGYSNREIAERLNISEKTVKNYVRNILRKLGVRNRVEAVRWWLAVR

[17] = test system: T17, DBP089 (synthetic construct); experiment: flow cytometry; conditions: bound most of the 13 targets; protein on the cell surface; protein details: yeast display (pETcon3, c-Myc); label: biotin
T17 sequence: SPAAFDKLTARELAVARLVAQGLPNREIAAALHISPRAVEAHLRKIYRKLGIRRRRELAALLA

[18] = test system: T18, DBP069 (synthetic construct); experiment: flow cytometry; conditions: prefers less than 3 of 13 targets; protein on the cell surface; protein details: yeast display (pETcon3, c-Myc); label: biotin
T18 sequence: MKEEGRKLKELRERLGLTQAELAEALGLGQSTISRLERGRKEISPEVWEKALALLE

[19] = test system: T19, DBP057 (synthetic construct); experiment: flow cytometry; conditions: strong binding to alternate target sharing a 6 bp stretch; protein on the cell surface; protein details: yeast display (pETcon3, c-Myc); label: biotin
T19 sequence: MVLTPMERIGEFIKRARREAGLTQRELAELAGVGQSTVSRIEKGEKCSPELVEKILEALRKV

[20] = test system: T20, DBP068 (synthetic construct); experiment: flow cytometry; conditions: 1 uM dsDNA with avidity; protein on the cell surface; protein details: yeast display (pETcon3, c-Myc); label: biotin
T20 sequence: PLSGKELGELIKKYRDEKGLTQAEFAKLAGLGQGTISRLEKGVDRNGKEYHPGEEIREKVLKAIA

[21] = test system: T21, DBP023 (synthetic construct); experiment: flow cytometry; conditions: bound most of the 13 targets; protein on the cell surface; protein details: yeast display (pETcon3, c-Myc); label: biotin
T21 sequence: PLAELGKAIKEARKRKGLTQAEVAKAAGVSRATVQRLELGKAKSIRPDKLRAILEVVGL

[22] = test system: T22, DBP026 (synthetic construct); experiment: flow cytometry; conditions: 1 uM dsDNA without avidity; protein on the cell surface; protein details: yeast display (pETcon3, c-Myc); label: biotin
T22 sequence: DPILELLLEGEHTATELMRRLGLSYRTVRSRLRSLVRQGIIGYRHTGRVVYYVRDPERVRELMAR

[23] = test system: T23, DBP031 (synthetic construct); experiment: flow cytometry; conditions: 1 uM dsDNA without avidity; protein on the cell surface; protein details: yeast display (pETcon3, c-Myc); label: biotin
T23 sequence: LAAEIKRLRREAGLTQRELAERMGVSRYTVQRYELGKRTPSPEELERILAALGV

[24] = test system: T24, DBP009 (synthetic construct); experiment: flow cytometry; conditions: specificity for TGCACA; strong preference for designed target; protein on the cell surface; protein details: yeast display (pETcon3, c-Myc); label: biotin
T24 sequence: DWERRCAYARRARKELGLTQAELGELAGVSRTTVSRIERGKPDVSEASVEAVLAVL

[25] = test system: T25, DBP035 (synthetic construct); experiment: flow cytometry; conditions: 1 uM dsDNA yeast display; 3 base position specificity; protein on the cell surface; protein details: yeast display (pETcon3, c-Myc); label: biotin
T25 sequence: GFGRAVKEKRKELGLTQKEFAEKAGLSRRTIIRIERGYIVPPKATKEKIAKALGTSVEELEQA

[26] = test system: T26, DBP011 (synthetic construct); experiment: flow cytometry; conditions: 1 uM dsDNA without avidity; protein on the cell surface; protein details: yeast display (pETcon3, c-Myc); label: biotin
T26 sequence: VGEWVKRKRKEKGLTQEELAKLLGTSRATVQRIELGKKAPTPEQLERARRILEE

[27] = test system: T27, DBP024 (synthetic construct); experiment: flow cytometry; conditions: 1 uM dsDNA without avidity; protein on the cell surface; protein details: yeast display (pETcon3, c-Myc); label: biotin
T27 sequence: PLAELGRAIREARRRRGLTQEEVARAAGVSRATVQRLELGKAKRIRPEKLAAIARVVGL

[28] = test system: T28, DBP006 (synthetic construct); experiment: flow cytometry; conditions: specificity for TGCACA; strong preference for designed target; protein on the cell surface; protein details: yeast display (pETcon3, c-Myc); label: biotin
T28 sequence: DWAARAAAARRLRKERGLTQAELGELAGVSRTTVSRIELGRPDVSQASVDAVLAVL

[29] = test system: T29, DBP007 (synthetic construct); experiment: flow cytometry; conditions: 1 uM dsDNA without avidity; protein on the cell surface; protein details: yeast display (pETcon3, c-Myc); label: biotin
T29 sequence: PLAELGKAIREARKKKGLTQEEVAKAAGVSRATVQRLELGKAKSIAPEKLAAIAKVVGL

[30] = test system: T30, DBP006 purified (synthetic construct); experiment: BLI; conditions: range for all purified designs; PBS, 1% BSA, 0.05% Tween 20; purified recombinant protein; protein details: His tag; label: biotin
T30 sequence: T28 sequence

[31] = test system: T31, DBP035 purified (synthetic construct); experiment: BLI; conditions: range for all purified designs; PBS, 1% BSA, 0.05% Tween 20; purified recombinant protein; protein details: His tag; label: biotin
T31 sequence: T25 sequence

## CGAGAACATAGTCG (double strand) [target G]
[1]
  binding result: binds
[2]
  binding result: binds

## CGACACCTGACGCG (double strand) [target D]
[3]
  binding result: binds
[4]
  binding result: binds
[5]
  binding result: binds

## TAGCAGGATGTGT (double strand) [target A]
[6]
  binding result: binds more weakly
[7]
  binding result: binds
[8]
  binding result: binds
[9]
  binding result: binds
[10]
  binding result: binds
[11]
  binding result: binds
[12]
  binding result: binds
[13]
  binding result: binds
[14]
  binding result: binds
[15]
  binding result: binds
[16]
  binding result: binds
[17]
  binding result: binds

## CGGCTGGATTACCG (double strand) [target C]
[18]
  binding result: binds
[19]
  binding result: binds
[20]
  binding result: binds

## GCAGATCTGCACATC (double strand) [target B]
[21]
  binding result: binds
[22]
  binding result: binds
[23]
  binding result: binds
[24]
  binding result: binds
[25]
  binding result: binds
[26]
  binding result: binds
[27]
  binding result: binds
[28]
  binding result: binds
[29]
  binding result: binds
[30]
  binding result: binds
[31]
  binding result: binds

For some of these results: Where cells or extracts were used, other partners may take part. For some of these results: The comparison behind a weaker result is the experiment's own reference, which may not be listed here. Protein sequences can lack the tags named with them. For some of these results: For at least one entry, the source does not settle the construct or the ends of the probe.
